Source: patent publication US10973840B2, “Methods of sensitizing tumor cells to weak base chemotherapeutic drugs” (SOCPRA SCIENCES SANTÉ ET HUMAINES S.E.C., priority 2017, dated 2021)

Legend:
[1] = system: MDA-MB-231 cells; assay: Intracellular localization of Dox by confocal live-cell imaging, MDA-MB-231; assay type: cell-based, human; details: for sequestration of Dox within endosomes: MDA-MB-231, normoxic
Description: (§1) Cells were cultured in 25 mm-diameter glass coverslips (Thermo Fisher Scientific) and incubated under various conditions (as indicated in the FIG. legends). Cells were then incubated for 2 h in a medium containing Dox (2 μM). After the incubation period, cells were washed to remove excess Dox and left in drug-free media for 10 min. […] Coverslips were mounted on glass slides and placed on a 37° C. warmed stage of an Olympus Fluoview™ FV1000 (Olympus, Tokyo, Japan) confocal laser scanning microscope. Dox was excited with a green helium neon laser (543 nm) and emitted fluorescence intensity was measured. Images were acquired on the same day, typically from 10-20 cells of similar size from each experimental condition, using identical instrument settings.

[2] = system: HT-1080 cells; assay: Intracellular localization of Dox by confocal live-cell imaging, HT-1080; assay type: cell-based, human; details: for sequestration of Dox within endosomes: HT-1080, normoxic
Description: as §1

COc1cccc2c1C(=O)c1c(O)c3c(c(O)c1C2=O)C[C@@](O)(C(=O)CO)C[C@@H]3O[C@H]1C[C@H](N)[C@H](O)[C@H](C)O1 [Dox, doxorubicin]
Dox localization in the nucleus ([1]; MDA-MB-231, hypoxia (1% O2) vs normoxia): significantly decreased | Dox localization ([1]; MDA-MB-231, normoxia (21% O2)): predominant accumulation of Dox in the nucleus | sequestration of Dox within endosomes ([1]; shNHE6): ~74% | sequestration of Dox within endosomes ([1]; shScrambled): ~10% | Dox localization in the nucleus ([2]; HT-1080, hypoxia (1% O2) vs normoxia): significantly decreased | uptake of Dox (nuclear fluorescence intensity) ([2]; HT-1080, media of different pHs, 4 h, effect of extracellular acidification): reduces the uptake of Dox | Dox localization ([2]; HT-1080, normoxia (21% O2)): predominant accumulation of Dox in the nucleus | sequestration of Dox within endosomes ([2]; shNHE6): ~45% | sequestration of Dox within endosomes ([2]; shScrambled): ~20%
